This passage reports IC50 results from US9023847B2, “Azaheterocyclic compounds” (Merck Patent GmbH, priority 2009, dated 2015).

Amino acid sequences for entries named in this document (tags omitted).
UniProt P23443, whole entry T412E: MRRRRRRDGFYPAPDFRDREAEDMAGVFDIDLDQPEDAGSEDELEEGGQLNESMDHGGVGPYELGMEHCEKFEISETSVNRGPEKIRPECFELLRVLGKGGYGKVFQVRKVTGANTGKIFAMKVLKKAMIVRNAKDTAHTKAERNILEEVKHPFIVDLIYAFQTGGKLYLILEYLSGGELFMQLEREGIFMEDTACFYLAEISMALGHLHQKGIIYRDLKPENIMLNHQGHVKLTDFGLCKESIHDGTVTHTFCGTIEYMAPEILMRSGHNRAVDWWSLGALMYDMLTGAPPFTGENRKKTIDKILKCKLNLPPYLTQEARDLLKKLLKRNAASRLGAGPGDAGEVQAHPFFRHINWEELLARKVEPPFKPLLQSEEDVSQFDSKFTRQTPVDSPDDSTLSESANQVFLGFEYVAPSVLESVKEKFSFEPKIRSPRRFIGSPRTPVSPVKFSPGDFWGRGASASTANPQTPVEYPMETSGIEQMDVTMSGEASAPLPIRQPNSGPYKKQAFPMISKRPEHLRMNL

This experiment concerns the target P70S6K (T412E mutant, Millipore) (Homo sapiens, UniProt P23443, T412E). The experiment is described as follows: p70S6K enzyme assay. Conditions: read-out: IC50 (p70S6K); class symbol; 3 nM P70S6K, 24 μM ATP. How it is done: P70S6K inhibitor compounds are diluted and plated in 96 well plates. A reaction mixture including the following components is then added to the compound plate to initiate the enzyme reaction; P70S6K (3 nM, T412E mutant, Millipore) is mixed with 24 μM ATP in an assay buffer containing 100 mM Hepes (pH 7.5), 5 mM MgCl2, 1 mM DTT, 0.015% Brij and 1 μM of the substrate peptide FITC-AHA-AKRRRLSSLRA-OH (derived from the S6 ribosomal protein sequence, FITC=fluorescein isothiocyanate, AHA=6-aminohexanoic acid). The reaction is incubated for 90 min at 25° C., before the addition of 10 mM EDTA to stop the reaction. The proportion of substrate and product (phosphorylated) peptide is analysed on a Caliper Life Sciences Lab Chip 3000, using a pressure of −1.4 psi, and upstream and downstream voltages of −3000 and −700 respectively. Product peaks are resolved before substrate peaks on the resulting chromatograms.

The match of structure and compound is tentative.

In general, IC50 refers to the concentration that inhibits the measured activity by half. Take `O=C(NCCNCc1ccc[nH]1)c1sccc1Nc1ccnc2[nH]ccc12`: the IC50 was under 100 nM.
